Experiment: general procedure: solution-phase peptide synthesis; HATU/EDIPA; EDC.HCl/DMAP for esterification; HATU/DMAP for macrolactamization
Details: for final HPLC purity: HPLC area %

| Substance | step yield (late stage modification step) | step yield (coupling step) | other results |
| --- | --- | --- | --- |
| Isobutyryl-Gln(Trt)-Thr(Ile-Fmoc)-Leu-OBzl |  |  | final HPLC purity (coupling step): 89.3 area % HPLC-purity |
| Isobutyryl-Gln(Trt)-Thr(Ile-H)-Leu-OBzl | 93.4% |  |  |
| Isobutyryl-Gln(Trt)-Thr(Ile-Tyr(tBu)Me-Fmoc)-Leu-OBzl |  |  | step yield (coupling step, overall over 2 steps from compound 21): 85% |
| Isobutyryl-Gln(Trt)-Thr(Ile-Tyr(tBu)Me-H)-Leu-OBzl |  |  | final HPLC purity (late stage modification step): 96.8 a % HPLC purity |
| Isobutyryl-Gln(Trt)-Thr(Ile-Tyr(tBu)Me-Ile-Fmoc)-Leu-Obzl |  | 89.6% |  |
| Isobutyryl-Gln(Trt)-Thr(Ile-Tyr(tBu)Me-Ile-H)-Leu-OBzl | 91.8% |  |  |
| Isobutyryl-Gln(Trt)-Thr(Ile-Tyr(tBu)Me-Ile-Synthon(TBDPS)-fmoc)-Leu-OBzl |  | 99% |  |
| Isobutyryl-Gln(Trt)-Thr(Ile-alloc)-Leu-OBzl |  | 89.2% | difficulty met (coupling step): ca. 10% racemization on Alloc-Ile-OH during esterification |
| N^2-(2-methylpropanoyl)-N^5-(triphenylmethyl)-L-glutaminyl-O—{N-[(2S)-2-amino-4-(1,3-dioxolan-2-yl)butanoyl]-L-isoleucyl-O-(tert-butyl)-N-methyl-L-tyrosinyl-L-isoleucyl}-L-threonyl-L-leucine | 93.8% |  |  |
| N^2-(2-methylpropanoyl)-N^5-(triphenylmethyl)-L-glutaminyl-O—{N-[(2S)-2-amino-5-hydroxypentanoyl]-L-isoleucyl-O-(tert-butyl)-N-methyl-L-tyrosyl-L-isoleucyl}-L-threonyl-L-leucine | 97.7% |  |  |
| benzyl N^2-(2-methylpropanoyl)-N^5-(triphenylmethyl)-L-glutaminyl-O—{N-[(2S)-2-(dibenzylamino)-4-(1,3-dioxolan-2-yl)butanoyl]-L-isoleucyl-O-(tert-butyl)-N-methyl-L-tyrosyl-L-isoleucyl}-L-threonyl-L-leucinate |  | 91.2% |  |
| benzyl N^2-(2-methylpropanoyl)-N^5-(triphenylmethyl)-L-glutaminyl-O—{N-[(2S)-2-amino-5-hydroxypentanoyl]-L-isoleucyl-O-(tert-butyl)-N-methyl-L-tyrosyl-L-isoleucyl}-L-threonyl-L-leucinate | 90% |  |  |
